Assay results: patent US20120237564A1, “Use of Aerosolized Antibiotics for Treating Chronic Obstructive Pulmonary Disease” (MPEX Pharmaceuticals, Inc., priority 2009, published 2012)
For at least one compound, name, drawing or mass did not settle the structure.

Tested on: Pseudomonas aeruginosa
Test: MIC of sputum bacteria to levofloxacin during the Phase 2 study
Assay type: cell-based
Settings: bacteria such as Pseudomonas aeruginosa from treated patients; data not shown

What does the source list for C[C@H]1COc2c(N3CCN(C)CC3)c(F)cc3c(=O)c(C(=O)O)cn1c23 [levofloxacin]?
MIC50 of bacteria to levofloxacin, change during the course of the study: did not change significantly; MIC90 of bacteria to levofloxacin, change during the course of the study: did not change significantly
